Reference: US20220370615A1, “Prevention of Illicit Manufacture of Methamphetamine from Pseudoephedrine Using Food Flavor Excipients” (Satara Pharmaceuticals, priority 2021, published 2022)

Tests used:
[1] = Reaction of excipient and pseudoephedrine with lithium in liquid ammonia (Li-NH3 reduction), methamphetamine quantified; conditions: excipient 1.0 mmol + pseudoephedrine 1.0 mmol, lithium 5.0 mmol in liquid ammonia, about -20° C., about 1 hour; pseudoephedrine only = 100
[2] = Reaction of excipient and pseudoephedrine with red phosphorous and hydriodic acid (P-HI reduction), methamphetamine quantified; conditions: excipient 1.0 mmol + pseudoephedrine 1.0 mmol, 57% aqueous hydriodic acid, red phosphorous 1.6 mmol, 90-100° C., 1-1.5 hours; pseudoephedrine only = 100

Row | Structure (SMILES) | Relative percentage of methamphetamine formation, Percent Methamphetamine, Li-NH3 Reduction [1] | Relative percentage of methamphetamine formation, Percent Methamphetamine, P-HI Reduction [2]
1 | COc1nccnc1C [2-Methoxy-3-methylpyrazine] | <1% | 2.0%
2 | CC(=O)c1cnccn1 [Acetylpyrazine] | <<1% | 6%
3 | CCOc1cncc(C)n1 [2-Ethoxy-6-methylpyrazine] | 4% | 13%
4 | CC(=O)c1nccs1 [2-Acetylthiazole] | <1% | 
5 | CCOc1cnc(C)cn1 [2-Ethoxy-5-methylpyrazine] | 7% | 15%
6 | COc1nccnc1CC(C)C [2-Isobutyl-3-methoxypyrazine] | 2% | 27%
7 | Cc1cnc(C)c(C)n1 [2,3,5-Trimethylpyrazine] | 8% | 20%
8 | CC(C)COC(=O)c1ccccc1N [Isobutyl anthranilate] | <1% | 2.3%
